No constants are given. Whether binding was seen depends on the method and setting. Binding seen in cells or lysates may run through a third protein. For some of these results: Binding calls can cover weak binding; strength is not graded here.

Chains of the proteins cited; added tags and fusions are not shown.
UniProt P31094: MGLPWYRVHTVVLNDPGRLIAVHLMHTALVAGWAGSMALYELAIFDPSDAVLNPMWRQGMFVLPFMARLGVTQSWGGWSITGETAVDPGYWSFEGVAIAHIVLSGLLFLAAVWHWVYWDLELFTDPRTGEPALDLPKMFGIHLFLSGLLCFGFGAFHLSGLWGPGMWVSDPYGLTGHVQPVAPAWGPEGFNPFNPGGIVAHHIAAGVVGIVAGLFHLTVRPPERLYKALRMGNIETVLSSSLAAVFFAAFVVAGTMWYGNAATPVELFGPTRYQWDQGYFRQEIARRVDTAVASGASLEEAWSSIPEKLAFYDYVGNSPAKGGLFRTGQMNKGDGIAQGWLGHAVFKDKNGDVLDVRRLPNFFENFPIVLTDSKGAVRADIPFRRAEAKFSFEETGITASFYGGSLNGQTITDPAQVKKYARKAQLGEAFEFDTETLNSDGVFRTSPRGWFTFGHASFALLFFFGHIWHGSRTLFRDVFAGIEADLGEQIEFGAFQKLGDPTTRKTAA

This note sets out measurements from article doi:10.1101/2025.01.21.633742.

Assay [1] addresses hexahistidine-tagged PSII core antenna protein CP43 (Synechococcus elongatus PCC 7942) (UniProt P11004). As to the kind of experiment: pull-down + cross-linking.
Assay [2] concerns the target FLAG-tagged NblS (sensory histidine kinase NblS of Synechococcus elongatus PCC 7942) (Synechococcus elongatus PCC 7942) (UniProt Q8RQ68). Description: co-IP + cross-linking.

“FLAG-tagged NblS (sensory histidine kinase NblS of Synechococcus elongatus PCC 7942) (from UniProt Q8RQ68) (enzyme)”: the binding result in assay [1] is reported as “no binding”. For “PSII core antenna CP47 protein (from UniProt P31094 1-508)”, the binding entry in assay [2] is on record as “binds”. Still for that read-out and setting: with “PSII reaction center D2 protein (from UniProt P11005 1-352)” the entry was “binds”; with “hexahistidine-tagged PSII core antenna protein CP43 (from UniProt P11004 1-461)”, “no binding”.
